# Experimental data published in the odorant receptor screen of Mainland et al. (2015).
# Values joined by “and” are separate entries in the source; they are usually repeats but may differ in a detail not shown here. Equal entries are not always repeated. The list shows a part of the results. Each value is one well over the wells without odorant, computed here; the data are noisy.
# Tests used:
# Test in all cases: odorant receptor activation (CRE luciferase / Renilla) (fold of no-odor wells); higher = more activation
# Settings in all cases: 100 µM
# [1] = system: OR51L1 clone 1534
# [2] = system: OR51M1 H91Q/L124F/I193T/P245H/F307L clone 1121
# [3] = system: OR51Q1 clone 1190
# [4] = system: OR51S1 clone 1699
# [5] = system: OR51T1 clone 1326
# [6] = system: OR51V1 clone 1700
# [7] = system: OR51V1 clone 1701
# [8] = system: OR52A1 S272P clone 1151
# [9] = system: OR52A4 clone 1719
# [10] = system: OR52A5 clone 1568
# [11] = system: OR52B2 clone 1210
# [12] = system: OR52B4 clone 1508
# [13] = system: OR52B6 T36A/L90H/A146T/H149R/V267I clone 1306
# [14] = system: OR52D1 clone 1164
# [15] = system: OR52E1 clone 1113
# [16] = system: OR52E2 H174R/R264C clone 1184
# [17] = system: OR52E4 V176I/R184M/R228H clone 1123
# [18] = system: OR52E5 P234L clone 1124
# [19] = system: OR52E6 clone 1196
# [20] = system: OR52E8 clone 1154
Structure (SMILES),odorant receptor activation [1],odorant receptor activation [2],odorant receptor activation [3],odorant receptor activation [4],odorant receptor activation [5],odorant receptor activation [6],odorant receptor activation [7],odorant receptor activation [8],odorant receptor activation [9],odorant receptor activation [10],odorant receptor activation [11],odorant receptor activation [12],odorant receptor activation [13],odorant receptor activation [14],odorant receptor activation [15],odorant receptor activation [16],odorant receptor activation [17],odorant receptor activation [18],odorant receptor activation [19],odorant receptor activation [20]
CCCCOC(C)=O [butyl acetate],0.971,1.02,0.811,1.27,0.851,0.687,0.731,0.751,0.496,0.887,0.815,0.901,0.886,0.898,0.901,0.858,0.859,1.14,1.16,1.16
CCOc1cc(C=O)ccc1O [ethyl vanillin],0.867 and 2.01 and 1.17,1.25,1.02 and 1.08,0.637,0.616 and 1.15,0.627,0.876,1.6 and 1.11,0.948,0.848,0.962 and 0.983,1.19 and 2.48 and 1.21,1.13 and 0.843,1.27 and 1.01,0.754 and 1.03,1.54 and 1.09,0.946,1.32,1.61 and 1.26,1.64 and 1.3
CS [methanethiol],1.03,1,0.914,0.795,0.623,0.722,1.07,1.08,0.783,0.75,0.866,0.869,0.16,0.855,0.88,1.19,0.874,0.829,1.01,0.888
CCC(C)=O [2-butanone],1.04,1.02,0.714,0.69,1.02,0.931,0.882,1.47,1.12,1.04,0.978,1.19,1.17,0.824,7.48,0.668,0.861,0.751,0.94,0.977
